PubChem BioAssay AID504764 | Drosophila RNAi Screening Center – 2011
Purpose: 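Genome-wide screen for regulators of Notch-driven gene expression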 (primary screen). Cell system: Drosophila Kc167 cells. Reagent: long dsRNA against Drosophila genes. Time to read-out: about 5 days (4 days dsRNA, then 24 h after transfection). Treatment: transfection of constitutively active membrane-tethered Notch lacking the extracellular domain, read 24 h later. Detection: 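Light from a Notch-responsive E(spl)m3 luciferase reporter under active Notch, with control-promoter and no-Notch reporter wells to normalise; raw counts from paired wells a and b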. Reading the numbers: induced reporter light, run 1, well a and induced reporter light, run 1, well b: higher = more light from the Notch target reporter with active Notch; control promoter light, run 1, well a and control promoter light, run 1, well b: higher = more light from the viral control promoter (cell number, transfection, viability); uninduced reporter light, run 1, well a: higher = more light from the Notch target reporter without active Notch. Call rule: 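Hit if the duplicate-averaged log2 ratio of induced to control-promoter light gives a plate-wise z beyond ±2, or induced to uninduced beyond ±1.8; weak-control or discordant-duplicate wells dropped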. Calls: active = modifier hit (raised or lowered Notch signal); inactive = not a hit.
In all, the deposit lists about 22,000 reagents; below is an unselected part of those with a known target gene and a result. Over the whole deposit, 403 (1.9%) were called active. 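Unnormalised raw counts per well; ratio z-scores behind the hit calls and whether each hit raises or lowers signal are not deposited.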 The record does not give: the amount of reagent.

gene,DRSC id,"induced reporter light, run 1, well a","induced reporter light, run 1, well b","control promoter light, run 1, well a","control promoter light, run 1, well b","uninduced reporter light, run 1, well a",Outcome
Zw (Zwischenferment),DRSC20303,1.04e5,1.19e5,91780,44570,8685,inactive
Slc45-1,DRSC10427,1.77e5,1.34e5,1.61e5,1.49e5,7920,inactive
CG2865,DRSC18527,1.58e5,2.15e5,2.28e5,1.97e5,12945,inactive
CG2865,DRSC18528,87420,86645,68300,63855,13410,inactive
Osi24 (Osiris 24),DRSC12275,76650,69535,66925,53565,7565,inactive
CG5033,DRSC07410,1.00e5,95715,1.79e5,1.88e5,8080,inactive
CG11106,DRSC19381,1.08e5,1.01e5,1.11e5,1.44e5,7945,inactive
Tmep (Transmembrane endosomal protein),DRSC08215,94355,1.01e5,1.61e5,1.88e5,6545,inactive
CG11458,DRSC11666,90560,71135,50035,51110,6888,inactive
nord,DRSC04210,1.62e5,1.41e5,1.60e5,1.45e5,10275,inactive
nord,DRSC04361,96610,86725,1.15e5,1.20e5,10535,active
CG3655,DRSC17676,68265,69695,93050,81740,6715,inactive
CG3655,DRSC18181,1.24e5,1.30e5,1.97e5,1.65e5,7555,inactive
CG3655,DRSC18477,84800,1.09e5,1.35e5,1.57e5,6565,inactive
CG14011,DRSC02343,1.56e5,1.06e5,1.41e5,1.24e5,8900,inactive
amos (absent MD neurons and olfactory sensilla),DRSC03484,54180,45480,51765,43450,3730,inactive
CG32544,DRSC20033,81920,1.04e5,94710,1.08e5,9100,inactive
Sema1a (Semaphorin 1a),DRSC03433,1.96e5,2.16e5,93975,1.22e5,23615,inactive
Taf8 (TBP-associated factor 8),DRSC20363,69305,60260,61670,52405,7920,inactive
CG9917,DRSC20218,1.41e5,1.84e5,2.15e5,1.86e5,10830,inactive

Part of the list above, set out differently:
{"gene": "amos (absent MD neurons and olfactory sensilla)", "DRSC id": "DRSC03484", "induced reporter light, run 1, well a": 54180, "induced reporter light, run 1, well b": 45480, "control promoter light, run 1, well a": 51765, "control promoter light, run 1, well b": 43450, "uninduced reporter light, run 1, well a": 3730, "Outcome": "inactive"}
{"gene": "CG32544", "DRSC id": "DRSC20033", "induced reporter light, run 1, well a": 81920, "induced reporter light, run 1, well b": 1.04e5, "control promoter light, run 1, well a": 94710, "control promoter light, run 1, well b": 1.08e5, "uninduced reporter light, run 1, well a": 9100, "Outcome": "inactive"}
{"gene": "Sema1a (Semaphorin 1a)", "DRSC id": "DRSC03433", "induced reporter light, run 1, well a": 1.96e5, "induced reporter light, run 1, well b": 2.16e5, "control promoter light, run 1, well a": 93975, "control promoter light, run 1, well b": 1.22e5, "uninduced reporter light, run 1, well a": 23615, "Outcome": "inactive"}
